Measurements reported in PubChem BioAssay AID1224830 (NIAID, 2016).

- Test: 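Regulators of TLR4 signalling towards TNF-alpha in macrophage-like cells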 (primary screen)
- Cell system: human THP-1 monocytic leukaemia cells, TNF dual-luciferase reporter clone, PMA-differentiated to macrophage-like cells
- Knock-down reagent: siRNA pool against human genes, 50 nM
- Time to read-out: LPS for 4 h, given about 3 days after siRNA transfection
- Conditions: bacterial LPS (TLR4 ligand), 10 ng/ml
- Detection: 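Ratio of firefly to renilla light, scaled to the plate median and expressed as a robust z-score per replicate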
- Direction: TNF reporter robust z-score: higher = stronger TNF reporter response to LPS
- Hit rule: 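Each well counts as active if its z-score is over 2.8 or under -1.5; controls are left without a call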
This is one part, drawn at random, of about 18,000 reagents tested. Over the whole deposit, about 2,900 (16%) were called active. 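Calls are made per well; low scores hint the gene aids the LPS response, high scores that it dampens it.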 Repeated entries: four replicate wells of each siRNA pool.

gene knocked down	TNF reporter robust z-score	outcome
CDCA7L	-0.77	inactive
CDCA7L	-1.05	inactive
CDCA7L	-1.17	inactive
CDCA7L	-0.52	inactive
ZNF697	-0.16	inactive
ZNF697	0.5	inactive
ZNF697	0.52	inactive
KRTAP5-9	0.94	inactive
KRTAP5-9	-2.19	active
KRTAP5-9	1.28	inactive
KRTAP5-9	4.46	active
AKIP1	1.72	inactive
AKIP1	1.66	inactive
AKIP1	-0.05	inactive
AKIP1	0.24	inactive
DSCR4	-0.62	inactive
DSCR4	-1.1	inactive
DSCR4	-1.22	inactive
DSCR4	-0.91	inactive
GPR132	0.28	inactive
GPR132	0.61	inactive
GPR132	0.5	inactive
GPR132	1.69	inactive
TBC1D2	1.62	inactive
TBC1D2	1.23	inactive
TBC1D2	1.9	inactive
TBC1D2	1.09	inactive
TSPAN2	1.11	inactive
TSPAN2	0.68	inactive
TSPAN2	1.24	inactive
TSPAN2	0.32	inactive
PIGP	-1.29	inactive
PIGP	-1.08	inactive
PIGP	-0.95	inactive
PIGP	-0.45	inactive
ERICH5	-0.27	inactive
ERICH5	0.07	inactive
ERICH5	1.37	inactive
ERICH5	0.9	inactive
HSPA2	-0.87	inactive
HSPA2	-0.36	inactive
HSPA2	0.17	inactive
NDUFV1	0.54	inactive
NDUFV1	-0.42	inactive
NDUFV1	-0.15	inactive
NDUFV1	0.13	inactive
CCDC102B	-1.57	active
CCDC102B	-0.31	inactive
CCDC102B	-1.2	inactive
CCDC102B	-1.4	inactive
HAX1	-0.58	inactive
HAX1	-0.4	inactive
HAX1	-0.13	inactive
HAX1	0.27	inactive
TMEM132B	-1.41	inactive
TMEM132B	-1.69	active
TMEM132B	-1.22	inactive
TMEM132B	-0.72	inactive
NDUFS2	2.03	inactive
NDUFS2	1.62	inactive
NDUFS2	1.36	inactive
NDUFS2	2.33	inactive
POU2F1	-1.85	active
POU2F1	-1.97	active
POU2F1	-1.37	inactive
POU2F1	-0.31	inactive
HOMEZ	0.49	inactive
HOMEZ	2.32	inactive
HOMEZ	1.2	inactive
HOMEZ	1.35	inactive
COX4I2	-0.91	inactive
COX4I2	-0.9	inactive
COX4I2	-1.18	inactive
COX4I2	-0.78	inactive
SRBD1	-0.5	inactive
SRBD1	-0.15	inactive
SRBD1	-0.21	inactive
SRBD1	0.32	inactive

Called active, among the entries above:
gene knocked down	TNF reporter robust z-score	outcome
KRTAP5-9	-2.19	active
KRTAP5-9	4.46	active
CCDC102B	-1.57	active
TMEM132B	-1.69	active
POU2F1	-1.85	active
POU2F1	-1.97	active
